From article PMC11511685 come the findings set out here.

Results are given in words; binding and its absence hold for the method and conditions named. Some entries that bind do so weakly or less than the wild type.

The target in this assay is T1, C-terminal EF-hand domain of human α-actinin-1 (third and fourth EF-hands, residues 824–892) (human) (UniProt P12814).
T1 sequence: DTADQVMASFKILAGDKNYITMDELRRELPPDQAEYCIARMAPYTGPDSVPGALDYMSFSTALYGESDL
The experiment in a line: NMR titration; 15N-1H HSQC and constant-time 13C-1H HSQC of free versus peptide-bound 13C,15N-labelled ACTN_EF34 (0.5 mM); 1.5-fold excess of unlabelled C0 peptide; Ca2+-free; 20 mM Tris-d11 pH 7.5, 1 mM EDTA-d12, 1 mM DTT-d10; 302 K; 800 MHz; both purified.

Regarding “peptide fragment of the GluN1 C0 domain (residues 841–865) from the NMDA receptor (from UniProt Q05586 841-865)”, the binding entry is recorded as “binds”.
